Source: doi:10.1101/204172
Results are given in words; binding and its absence hold for the method and conditions named. Binding can be weak; no strength is given.

Target: T1, USH1C (harmonin) (UniProt Q9ES64)
T1 sequence: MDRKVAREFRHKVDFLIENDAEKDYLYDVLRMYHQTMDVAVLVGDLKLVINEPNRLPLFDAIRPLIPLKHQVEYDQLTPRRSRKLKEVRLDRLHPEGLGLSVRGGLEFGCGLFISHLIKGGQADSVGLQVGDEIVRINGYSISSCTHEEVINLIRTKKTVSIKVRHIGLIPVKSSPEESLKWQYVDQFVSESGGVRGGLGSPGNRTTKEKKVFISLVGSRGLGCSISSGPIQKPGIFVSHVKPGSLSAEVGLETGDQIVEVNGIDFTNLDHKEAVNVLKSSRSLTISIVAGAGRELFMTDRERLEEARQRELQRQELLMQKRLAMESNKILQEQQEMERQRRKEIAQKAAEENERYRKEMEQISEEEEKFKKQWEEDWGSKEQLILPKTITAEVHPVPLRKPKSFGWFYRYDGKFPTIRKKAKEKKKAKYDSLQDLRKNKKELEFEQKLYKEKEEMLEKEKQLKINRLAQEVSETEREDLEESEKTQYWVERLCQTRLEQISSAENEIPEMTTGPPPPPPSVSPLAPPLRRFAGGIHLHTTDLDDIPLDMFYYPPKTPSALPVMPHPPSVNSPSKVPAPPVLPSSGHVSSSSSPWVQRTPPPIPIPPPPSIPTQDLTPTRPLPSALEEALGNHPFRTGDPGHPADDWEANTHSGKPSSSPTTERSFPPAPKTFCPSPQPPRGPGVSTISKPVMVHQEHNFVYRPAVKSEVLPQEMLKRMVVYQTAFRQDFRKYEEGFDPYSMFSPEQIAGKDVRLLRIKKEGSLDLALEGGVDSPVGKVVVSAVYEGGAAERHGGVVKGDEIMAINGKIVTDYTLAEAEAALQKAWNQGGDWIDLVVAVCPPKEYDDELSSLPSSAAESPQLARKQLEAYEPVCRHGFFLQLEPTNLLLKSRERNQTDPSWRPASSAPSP
Assay: two-hybrid

## TRPV6, the 33 terminal amino acids with the PDZ-binding interface (PBI) (domain or fragment)
  binding: binds
